Target: the molecule itself
Test: gel mobility shift, TSEII probe, increasing recombinant STF-1 (test for a homodimeric form)

B1: STF-1 (somatostatin transcription factor-1), full length recombinant protein (other)
chain: MNSEEQYYAATQLYKDPCAFQRGPVPEFSANPPACLYMGRQPPPPPPPQFAGSLGTLEQGSPPDISPYEVPPLADDPAGAHLHHHLPAQLGLAHPPPGPFPNGTETGGLEEPSRVHLPFPWMKSTKAHAWKSQWAGGAYAAEPEENKRTRTAYTRAQLLELEKEFLFNKYISRPRRVELAVMLNLTERHIKIWFQNRRMKWKKEEDKKRSSGTTSGGGGGEEPEQDCAVTSGEELLALPPPPPPGGAVPSGVPAAAREGRLPSGLSASPQPSSIAPLRPQEPR
  binding result: no binding
